Measured data: PubChem BioAssay AID1508597 (Cure First, 2020)
This is a random part of the about 2,100 reagents, under one of the conditions tested. 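Calls flag viability under 80% in either arm, not effects specific to rucaparib; the reference for percent is not stated.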 Reagents against one gene are numbered here. Not stated in the record: the 100% reference.

- Aim: 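Genes whose silencing sensitises or protects ovarian cancer cells against rucaparib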 (primary screen)
- System: human ovarian carcinoma lines grown from tumours: OCI-P5x (papillary serous) and OCI-C5x (clear cell)
- Knock-down reagent: siRNA pool against human genes, 1.25 pmol siRNA per well
- Time to read-out: 72 h or 96 h, depending on the cell culture
- Challenge: rucaparib 20 µM (about IC30) or vehicle, present until read-out
- Rucaparib or vehicle: Vehicle
- Cell line: OCI-C5x (clear cell)
- Detection: 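Luminescent ATP-based viability assay read 72 or 96 h after transfection, depending on culture, given as normalised percent viability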
- Reading the numbers: viability, normalised: higher = more viable cells remaining
- Hit rule: 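Active when normalised viability falls below 80 percent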
- Meaning of the calls: active = viability under 80%; inactive = viability 80% or more

no.	Target gene	reagent	technical replicate	viability, normalised (%)	call
1	GATAD2A	1	1	49.7	active
2	GATAD2A	1	2	64.1	active
3	GATAD2A	1	3	62.8	active
4	KDM3A	1	1	59.7	active
5	KDM3A	1	2	46.9	active
6	KDM3A	1	3	45.9	active
7	TTN	1	1	59.7	active
8	TTN	1	2	53.3	active
9	TTN	1	3	71.1	active
10	CYP7A1	1	1	28.7	active
11	CYP7A1	1	2	39.2	active
12	CYP7A1	1	3	42.1	active
13	DRD3	1	1	49	active
14	DRD3	1	2	34.8	active
15	DRD3	1	3	47.5	active
16	NEK1	1	1	57.7	active
17	NEK1	1	2	57.5	active
18	NEK1	1	3	57.7	active
19	CCNK	1	1	58.1	active
20	CCNK	1	2	57.5	active
21	CCNK	1	3	39.7	active
22	MECOM	1	1	53.5	active
23	MECOM	1	2	51.2	active
24	MECOM	1	3	45	active
25	MECOM	2	1	40	active
26	MECOM	2	2	45.3	active
27	MECOM	2	3	51.8	active
28	DDX10	1	1	33.9	active
29	DDX10	1	2	44	active
30	DDX10	1	3	50	active
31	MSX1	1	1	61.7	active
32	MSX1	1	2	50	active
33	MSX1	1	3	48.4	active
34	MTHFR	1	1	42.4	active
35	MTHFR	1	2	35.2	active
36	MTHFR	1	3	54.1	active
37	PKN3	1	1	56	active
38	PKN3	1	2	63.7	active
39	PKN3	1	3	52.9	active

3 entries already listed, arranged by “viability, normalised (%)”, low to high:
Target gene	reagent	technical replicate	viability, normalised (%)	call
MECOM	2	1	40	active
MECOM	2	2	45.3	active
MECOM	2	3	51.8	active
